The supplement of paper PMC12819154, “High-throughput peptide-centric local stability assay extends protein–ligand identification to membrane proteins, tissues and bacteria” (Nature Structural & Molecular Biology, 2025)
This is one part of the list. Small differences around the control level are noise.

Protein sequences, listed by entry. Tags and fused reporters are not part of them. Lines headed by an entry give the natural chain unless they say otherwise; changes in a name come on top.
UniProt Q8VCR3: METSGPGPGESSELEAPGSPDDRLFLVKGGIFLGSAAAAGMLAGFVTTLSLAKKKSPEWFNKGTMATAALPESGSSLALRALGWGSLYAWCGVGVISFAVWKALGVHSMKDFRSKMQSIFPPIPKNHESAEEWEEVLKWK
UniProt Q921M4: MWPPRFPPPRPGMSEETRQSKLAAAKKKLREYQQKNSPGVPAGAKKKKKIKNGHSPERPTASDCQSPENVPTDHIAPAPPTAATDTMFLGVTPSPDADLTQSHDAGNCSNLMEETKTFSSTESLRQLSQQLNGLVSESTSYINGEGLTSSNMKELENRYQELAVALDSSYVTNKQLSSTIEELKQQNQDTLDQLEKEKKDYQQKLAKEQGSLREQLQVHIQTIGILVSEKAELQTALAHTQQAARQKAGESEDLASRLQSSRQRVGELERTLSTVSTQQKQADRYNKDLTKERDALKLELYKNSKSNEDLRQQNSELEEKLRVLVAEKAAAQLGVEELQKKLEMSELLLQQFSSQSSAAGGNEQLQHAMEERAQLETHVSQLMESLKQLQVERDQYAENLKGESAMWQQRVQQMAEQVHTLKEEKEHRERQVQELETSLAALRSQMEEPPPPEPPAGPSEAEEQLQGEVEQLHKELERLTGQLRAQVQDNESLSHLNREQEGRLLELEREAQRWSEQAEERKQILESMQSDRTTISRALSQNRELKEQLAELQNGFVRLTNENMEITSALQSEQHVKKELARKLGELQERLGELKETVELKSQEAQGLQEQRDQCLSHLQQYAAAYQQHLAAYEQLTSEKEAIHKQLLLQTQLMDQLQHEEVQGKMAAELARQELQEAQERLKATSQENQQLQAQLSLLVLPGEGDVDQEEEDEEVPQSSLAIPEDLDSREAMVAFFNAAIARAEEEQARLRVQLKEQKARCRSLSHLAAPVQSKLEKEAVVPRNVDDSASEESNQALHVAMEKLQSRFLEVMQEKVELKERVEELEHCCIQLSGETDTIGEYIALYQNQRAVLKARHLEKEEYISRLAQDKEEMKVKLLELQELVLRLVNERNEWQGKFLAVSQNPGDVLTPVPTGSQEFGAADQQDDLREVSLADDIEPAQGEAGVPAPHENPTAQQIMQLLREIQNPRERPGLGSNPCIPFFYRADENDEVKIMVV
UniProt Q91V01: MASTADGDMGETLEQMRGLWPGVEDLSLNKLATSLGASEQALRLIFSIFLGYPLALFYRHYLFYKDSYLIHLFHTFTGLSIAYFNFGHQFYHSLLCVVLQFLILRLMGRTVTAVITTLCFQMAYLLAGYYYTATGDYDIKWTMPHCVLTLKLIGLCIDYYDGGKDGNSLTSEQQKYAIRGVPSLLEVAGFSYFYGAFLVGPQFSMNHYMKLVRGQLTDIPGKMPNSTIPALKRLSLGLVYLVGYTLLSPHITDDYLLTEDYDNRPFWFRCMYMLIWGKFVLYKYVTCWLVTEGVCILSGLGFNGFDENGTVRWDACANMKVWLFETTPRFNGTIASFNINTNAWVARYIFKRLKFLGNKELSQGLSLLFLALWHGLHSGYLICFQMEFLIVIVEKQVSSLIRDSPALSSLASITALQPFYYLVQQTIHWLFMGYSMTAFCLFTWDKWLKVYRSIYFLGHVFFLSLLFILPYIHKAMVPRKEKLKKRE
UniProt Q91WU5: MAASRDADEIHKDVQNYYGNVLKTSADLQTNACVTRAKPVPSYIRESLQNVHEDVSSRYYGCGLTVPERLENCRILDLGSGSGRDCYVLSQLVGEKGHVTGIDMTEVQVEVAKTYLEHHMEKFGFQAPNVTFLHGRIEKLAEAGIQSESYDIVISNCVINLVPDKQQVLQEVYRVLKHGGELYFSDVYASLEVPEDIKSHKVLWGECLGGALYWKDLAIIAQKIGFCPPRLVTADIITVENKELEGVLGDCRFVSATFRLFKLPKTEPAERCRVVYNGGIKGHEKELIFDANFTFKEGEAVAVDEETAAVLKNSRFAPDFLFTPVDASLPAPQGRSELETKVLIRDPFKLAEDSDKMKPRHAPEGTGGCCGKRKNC
UniProt Q922B9: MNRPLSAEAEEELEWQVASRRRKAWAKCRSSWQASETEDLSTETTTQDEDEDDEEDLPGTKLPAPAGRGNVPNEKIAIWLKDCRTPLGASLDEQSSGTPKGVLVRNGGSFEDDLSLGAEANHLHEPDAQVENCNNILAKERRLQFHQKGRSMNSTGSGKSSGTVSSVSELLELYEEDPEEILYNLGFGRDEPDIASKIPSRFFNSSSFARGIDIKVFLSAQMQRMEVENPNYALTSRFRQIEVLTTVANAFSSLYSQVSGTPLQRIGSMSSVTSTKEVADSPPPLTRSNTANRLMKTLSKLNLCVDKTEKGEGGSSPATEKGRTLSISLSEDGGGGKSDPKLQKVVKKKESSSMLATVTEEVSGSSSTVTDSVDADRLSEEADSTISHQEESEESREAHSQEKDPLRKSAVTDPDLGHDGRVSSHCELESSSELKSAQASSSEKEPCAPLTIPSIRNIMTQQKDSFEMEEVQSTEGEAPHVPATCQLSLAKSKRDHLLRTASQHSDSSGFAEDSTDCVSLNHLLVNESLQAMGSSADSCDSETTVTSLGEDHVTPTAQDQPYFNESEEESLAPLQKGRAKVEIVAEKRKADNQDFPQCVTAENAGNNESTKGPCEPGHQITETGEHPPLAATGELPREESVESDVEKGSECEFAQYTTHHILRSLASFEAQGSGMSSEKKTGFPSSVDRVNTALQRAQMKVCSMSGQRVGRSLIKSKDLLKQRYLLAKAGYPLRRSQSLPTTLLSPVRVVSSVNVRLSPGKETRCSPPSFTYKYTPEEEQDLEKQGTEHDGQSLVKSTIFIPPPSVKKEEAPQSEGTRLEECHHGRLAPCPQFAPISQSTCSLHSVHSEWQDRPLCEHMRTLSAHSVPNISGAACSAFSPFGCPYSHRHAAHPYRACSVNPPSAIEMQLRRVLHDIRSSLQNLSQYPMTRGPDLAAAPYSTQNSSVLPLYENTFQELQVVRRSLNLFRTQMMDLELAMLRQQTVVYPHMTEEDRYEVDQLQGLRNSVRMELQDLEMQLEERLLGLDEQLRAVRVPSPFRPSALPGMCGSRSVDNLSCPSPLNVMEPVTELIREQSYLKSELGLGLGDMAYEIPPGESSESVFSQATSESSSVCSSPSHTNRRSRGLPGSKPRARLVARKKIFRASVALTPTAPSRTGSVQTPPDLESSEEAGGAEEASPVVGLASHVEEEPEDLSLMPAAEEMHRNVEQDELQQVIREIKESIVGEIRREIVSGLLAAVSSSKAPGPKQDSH
UniProt Q91ZP6: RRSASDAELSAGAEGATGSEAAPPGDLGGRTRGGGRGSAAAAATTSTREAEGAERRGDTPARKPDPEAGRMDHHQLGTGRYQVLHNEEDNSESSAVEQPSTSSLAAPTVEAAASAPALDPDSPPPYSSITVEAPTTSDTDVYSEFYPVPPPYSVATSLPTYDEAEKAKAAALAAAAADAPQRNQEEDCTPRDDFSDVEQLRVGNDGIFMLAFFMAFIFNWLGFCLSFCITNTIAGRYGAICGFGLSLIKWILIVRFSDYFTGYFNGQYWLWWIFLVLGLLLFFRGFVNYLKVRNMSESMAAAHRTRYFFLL
UniProt Q99J83: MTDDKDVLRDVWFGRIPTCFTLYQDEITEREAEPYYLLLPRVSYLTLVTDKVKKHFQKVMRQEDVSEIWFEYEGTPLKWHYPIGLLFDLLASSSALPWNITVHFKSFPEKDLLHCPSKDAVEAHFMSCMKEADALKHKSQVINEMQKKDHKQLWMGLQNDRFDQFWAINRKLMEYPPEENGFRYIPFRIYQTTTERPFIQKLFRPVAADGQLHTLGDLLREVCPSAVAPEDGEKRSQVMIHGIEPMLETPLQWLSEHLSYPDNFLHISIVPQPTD
UniProt Q91XT4: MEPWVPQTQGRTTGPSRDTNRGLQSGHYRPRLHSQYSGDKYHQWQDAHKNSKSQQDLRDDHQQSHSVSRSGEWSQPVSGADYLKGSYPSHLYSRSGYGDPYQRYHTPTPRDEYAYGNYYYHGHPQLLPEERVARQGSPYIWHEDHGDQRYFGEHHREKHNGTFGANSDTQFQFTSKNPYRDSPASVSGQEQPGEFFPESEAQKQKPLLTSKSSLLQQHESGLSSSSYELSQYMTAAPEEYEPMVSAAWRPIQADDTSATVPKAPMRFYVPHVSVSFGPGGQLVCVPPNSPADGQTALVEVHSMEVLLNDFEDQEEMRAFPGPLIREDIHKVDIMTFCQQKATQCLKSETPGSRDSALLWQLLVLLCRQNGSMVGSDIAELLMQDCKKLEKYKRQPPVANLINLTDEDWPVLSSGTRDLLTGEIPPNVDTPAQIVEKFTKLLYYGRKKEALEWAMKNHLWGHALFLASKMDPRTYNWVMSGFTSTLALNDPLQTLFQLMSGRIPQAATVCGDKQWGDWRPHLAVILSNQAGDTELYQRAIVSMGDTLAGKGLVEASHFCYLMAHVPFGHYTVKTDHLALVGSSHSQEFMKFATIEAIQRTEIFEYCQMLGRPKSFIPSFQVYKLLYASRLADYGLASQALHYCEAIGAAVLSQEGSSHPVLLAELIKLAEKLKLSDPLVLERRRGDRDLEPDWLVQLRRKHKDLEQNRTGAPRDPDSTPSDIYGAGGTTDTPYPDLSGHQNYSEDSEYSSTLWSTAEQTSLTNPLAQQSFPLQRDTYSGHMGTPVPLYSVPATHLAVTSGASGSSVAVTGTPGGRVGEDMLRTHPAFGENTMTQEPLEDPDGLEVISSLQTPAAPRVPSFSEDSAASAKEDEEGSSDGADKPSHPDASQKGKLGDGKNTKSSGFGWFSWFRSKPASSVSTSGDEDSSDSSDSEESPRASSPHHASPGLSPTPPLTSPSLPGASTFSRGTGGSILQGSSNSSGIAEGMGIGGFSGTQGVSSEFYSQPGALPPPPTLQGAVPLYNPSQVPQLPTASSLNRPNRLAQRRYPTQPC
UniProt Q8VEE0: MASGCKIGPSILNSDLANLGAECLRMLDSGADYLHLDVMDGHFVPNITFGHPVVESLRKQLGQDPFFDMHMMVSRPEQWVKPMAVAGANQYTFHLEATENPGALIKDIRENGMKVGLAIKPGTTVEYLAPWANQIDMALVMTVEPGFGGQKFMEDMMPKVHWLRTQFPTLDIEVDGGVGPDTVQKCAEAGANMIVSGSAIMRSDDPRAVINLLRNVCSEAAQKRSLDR
UniProt Q8VDG3: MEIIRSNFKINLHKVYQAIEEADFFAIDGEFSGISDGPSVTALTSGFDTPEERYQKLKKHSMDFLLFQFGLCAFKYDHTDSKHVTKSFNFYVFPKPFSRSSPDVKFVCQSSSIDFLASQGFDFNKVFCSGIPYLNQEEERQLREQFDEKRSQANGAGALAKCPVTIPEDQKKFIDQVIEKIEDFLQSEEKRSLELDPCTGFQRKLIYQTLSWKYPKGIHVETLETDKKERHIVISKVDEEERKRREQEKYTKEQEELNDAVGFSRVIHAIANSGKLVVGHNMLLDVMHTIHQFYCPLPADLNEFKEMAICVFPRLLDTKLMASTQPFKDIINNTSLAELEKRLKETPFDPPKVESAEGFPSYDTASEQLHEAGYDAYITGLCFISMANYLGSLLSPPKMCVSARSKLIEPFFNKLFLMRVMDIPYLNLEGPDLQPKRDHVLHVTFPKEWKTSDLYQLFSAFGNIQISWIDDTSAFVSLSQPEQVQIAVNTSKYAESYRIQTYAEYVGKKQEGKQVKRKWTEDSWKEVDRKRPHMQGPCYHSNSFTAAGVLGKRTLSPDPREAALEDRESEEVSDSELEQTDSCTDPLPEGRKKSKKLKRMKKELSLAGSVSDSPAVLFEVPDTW
UniProt Q8VDK1: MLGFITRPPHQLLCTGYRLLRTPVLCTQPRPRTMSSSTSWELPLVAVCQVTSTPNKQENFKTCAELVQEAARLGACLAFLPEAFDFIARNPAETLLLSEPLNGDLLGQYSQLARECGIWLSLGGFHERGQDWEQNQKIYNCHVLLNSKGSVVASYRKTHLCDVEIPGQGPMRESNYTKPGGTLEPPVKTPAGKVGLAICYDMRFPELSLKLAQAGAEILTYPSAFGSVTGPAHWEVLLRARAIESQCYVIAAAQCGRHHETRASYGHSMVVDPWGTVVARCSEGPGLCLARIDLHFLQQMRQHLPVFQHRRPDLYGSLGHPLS
UniProt Q91VU1: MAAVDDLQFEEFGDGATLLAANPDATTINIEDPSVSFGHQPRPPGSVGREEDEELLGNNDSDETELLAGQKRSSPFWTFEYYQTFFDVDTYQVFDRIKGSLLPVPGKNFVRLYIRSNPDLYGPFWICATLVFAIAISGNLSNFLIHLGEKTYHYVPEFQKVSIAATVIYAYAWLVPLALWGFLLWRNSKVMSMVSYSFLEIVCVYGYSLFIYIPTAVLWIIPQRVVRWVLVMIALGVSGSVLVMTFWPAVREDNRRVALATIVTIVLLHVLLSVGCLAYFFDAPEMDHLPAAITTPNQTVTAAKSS
UniProt Q8VD57: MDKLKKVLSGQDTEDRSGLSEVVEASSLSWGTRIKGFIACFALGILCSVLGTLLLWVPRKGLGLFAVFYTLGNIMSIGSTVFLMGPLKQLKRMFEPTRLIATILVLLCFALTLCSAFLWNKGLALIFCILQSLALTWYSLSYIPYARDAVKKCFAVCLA

These targets were tested with CN[C@@H]1C[C@H]2O[C@@](C)([C@@H]1OC)n1c3ccccc3c3c4c(c5c6ccccc6n2c5c31)C(=O)NC4 [staurosporine] (assay: log2 fold change of pooled soluble protein (PISA), ligand vs vehicle (log2 ratio); higher = more thermally stabilized). Conditions: ligand concentration: 20 uM; assay format: PISA pool 52.9/55.5/58.6 C.

| Target | log2 fold change of pooled soluble protein |
| --- | --- |
| UniProt Q8VCR3 | 0.095 |
| UniProt Q8VCT3 | 0.126 |
| UniProt Q91W59 | -0.192 |
| UniProt Q922U2 | -0.226 |
| UniProt Q921M4 | -0.0664 |
| UniProt Q91YX0 | -0.187 |
| UniProt Q921C5 | -0.0319 |
| UniProt Q91V01 | -0.0783 |
| UniProt Q91VM9 | 0.0328 |
| UniProt Q8VCS0 | 0.00653 |
| UniProt Q91WD5 | 0.00549 |
| UniProt Q91WV0 | 0.123 |
| UniProt Q91V12 | -0.0134 |
| UniProt Q91WU5 | 0.0839 |
| UniProt Q921H8 | 0.0826 |
| UniProt Q922B9 | -0.171 |
| UniProt Q8VDL4 | -0.0973 |
| UniProt Q91ZP6 | 0.204 |
| UniProt Q91YY4 | -0.00211 |

Reprinted from the listing for reference:

| Target | log2 fold change of pooled soluble protein |
| --- | --- |
| UniProt Q91WU5 | 0.0839 |
| UniProt Q921H8 | 0.0826 |

(next part)

| Target | log2 fold change of pooled soluble protein |
| --- | --- |
| UniProt Q920E5 | -0.0401 |
| UniProt Q921I1 | 0.00344 |
| UniProt Q920A7 | -0.00729 |
| UniProt Q91Y97 | 0.102 |
| UniProt Q99J83 | -0.0489 |
| UniProt Q91XT4 | 0.0739 |
| UniProt Q8VEE0 | -0.153 |
| UniProt Q8VDG3 | 0.0627 |
| UniProt Q91VA6 | 0.0718 |
| UniProt Q8VDK1 | 0.0105 |
| UniProt Q920F6 | -0.0861 |
| UniProt Q91Z96 | 0.988 |
| UniProt Q91VZ6 | -0.123 |
| UniProt Q921M7 | 0.259 |
| UniProt Q91XD7 | -0.00598 |
| UniProt Q91XL9 | -0.0427 |
| UniProt Q91VU1 | 0.0966 |
| UniProt Q8VD57 | -0.0202 |
